# Record: PubChem BioAssay AID1224830 (NIAID, 2016)
# Assay: 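Regulators of TLR4 signalling towards TNF-alpha in macrophage-like cells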 (primary screen)
# Cell system: human THP-1 monocytic leukaemia cells, TNF dual-luciferase reporter clone, PMA-differentiated to macrophage-like cells
# Reagents: siRNA pool against human genes, 50 nM
# Timing: LPS for 4 h, given about 3 days after siRNA transfection
# Treatment: bacterial LPS (TLR4 ligand), 10 ng/ml
# Measured: 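TNF firefly reporter luminescence divided by renilla, normalised to the plate median, then turned into a robust z-score for each replicate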
# Direction: TNF reporter robust z-score: higher = stronger TNF reporter response to LPS
# Rule for the call: 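Each well counts as active if its z-score is over 2.8 or under -1.5; controls are left without a call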
# The whole screen tested about 18,000 reagents; shown is a random part of them. About 2,900 of them (16%) were called active. 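Calls are made per well; low scores hint the gene aids the LPS response, high scores that it dampens it.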 A number with no mark means an inactive call. Repeated entries: four replicate wells of each siRNA pool.
Target gene,TNF reporter robust z-score
HERC2P3 (GeneID 283755),-1.46
HERC2P3 (GeneID 283755),-1.48
HERC2P3 (GeneID 283755),-1.82 (active)
HERC2P3 (GeneID 283755),-0.3
TLR2 (GeneID 7097),-1.51 (active)
TLR2 (GeneID 7097),-1.38
TLR2 (GeneID 7097),-1.34
TLR2 (GeneID 7097),-0.06
ABHD8 (GeneID 79575),0.8
ABHD8 (GeneID 79575),0.45
ABHD8 (GeneID 79575),-0.06
ZIM3 (GeneID 114026),-0.73
ZIM3 (GeneID 114026),1.07
ZIM3 (GeneID 114026),-1.08
ZIM3 (GeneID 114026),1.1
EPHB1 (GeneID 2047),-0.76
EPHB1 (GeneID 2047),0.28
EPHB1 (GeneID 2047),0.01
EPHB1 (GeneID 2047),-0.14
ST6GALNAC3 (GeneID 256435),-0.69
ST6GALNAC3 (GeneID 256435),1.47
ST6GALNAC3 (GeneID 256435),0.48
ST6GALNAC3 (GeneID 256435),2.61
ZNRF1 (GeneID 84937),-0.68
ZNRF1 (GeneID 84937),1.32
ZNRF1 (GeneID 84937),-0.87
ZNRF1 (GeneID 84937),-0.54
PSORS1C2 (GeneID 170680),-1.17
PSORS1C2 (GeneID 170680),-0.22
PSORS1C2 (GeneID 170680),-1.9 (active)
PSORS1C2 (GeneID 170680),-1.38
OLIG1 (GeneID 116448),0.61
OLIG1 (GeneID 116448),0.65
OLIG1 (GeneID 116448),1.2
OLIG1 (GeneID 116448),6.56 (active)
IL22RA2 (GeneID 116379),1.82
IL22RA2 (GeneID 116379),0.59
IL22RA2 (GeneID 116379),0.82
IL22RA2 (GeneID 116379),-0.14
SAMSN1 (GeneID 64092),-0.48
SAMSN1 (GeneID 64092),-1.21
SAMSN1 (GeneID 64092),-1.66 (active)
SAMSN1 (GeneID 64092),-0.3
CHIT1 (GeneID 1118),-0.93
CHIT1 (GeneID 1118),2.16
CHIT1 (GeneID 1118),1.81
CHIT1 (GeneID 1118),1.11
GLP2R (GeneID 9340),-0.15
GLP2R (GeneID 9340),-0.19
GLP2R (GeneID 9340),-0.85
GLP2R (GeneID 9340),-0.42
TRIM34 (GeneID 53840),-1.23
TRIM34 (GeneID 53840),-0.55
TRIM34 (GeneID 53840),0.79
TRIM34 (GeneID 53840),1.4
C2orf76 (GeneID 130355),-0.5
C2orf76 (GeneID 130355),0.97
C2orf76 (GeneID 130355),0.51
C2orf76 (GeneID 130355),0.85
GMEB2 (GeneID 26205),-0.14
GMEB2 (GeneID 26205),0.22
GMEB2 (GeneID 26205),0.74
GMEB2 (GeneID 26205),1.36

The list goes on; the last 3 above are carried over.
Target gene,TNF reporter robust z-score
GMEB2 (GeneID 26205),0.22
GMEB2 (GeneID 26205),0.74
GMEB2 (GeneID 26205),1.36
TEX19 (GeneID 400629),-0.05
TEX19 (GeneID 400629),-0.49
TEX19 (GeneID 400629),-0.48
TEX19 (GeneID 400629),-0.64
WDR36 (GeneID 134430),-1.24
WDR36 (GeneID 134430),-0.87
WDR36 (GeneID 134430),1.52
WDR36 (GeneID 134430),0.58
ZFP36L2 (GeneID 678),-0.51
ZFP36L2 (GeneID 678),-0.14
ZFP36L2 (GeneID 678),0.06
ZFP36L2 (GeneID 678),-0.03
PCDHGA4 (GeneID 56111),-0.57
PCDHGA4 (GeneID 56111),-0.17
PCDHGA4 (GeneID 56111),-0.42
PCDHGA4 (GeneID 56111),0.01
NANS (GeneID 54187),-0.48
NANS (GeneID 54187),0.85
NANS (GeneID 54187),0.01
NANS (GeneID 54187),0.24
MRPS16 (GeneID 51021),-0.1
MRPS16 (GeneID 51021),0.52
MRPS16 (GeneID 51021),0.92
MRPS16 (GeneID 51021),0.13
VIRMA (GeneID 25962),0.13
VIRMA (GeneID 25962),-0.24
VIRMA (GeneID 25962),0.06
VIRMA (GeneID 25962),0.29
BAZ2B (GeneID 29994),-0.92
BAZ2B (GeneID 29994),0.23
BAZ2B (GeneID 29994),-0.59
BAZ2B (GeneID 29994),1.22
RGS16 (GeneID 6004),1.13
RGS16 (GeneID 6004),1.08
RGS16 (GeneID 6004),0.27
RGS16 (GeneID 6004),0.17
ZNF493 (GeneID 284443),0.98
ZNF493 (GeneID 284443),-0.62
ZNF493 (GeneID 284443),-1.19
ZNF493 (GeneID 284443),0.12
METTL1 (GeneID 4234),-0.61
METTL1 (GeneID 4234),0.09
METTL1 (GeneID 4234),-0.68
METTL1 (GeneID 4234),1
DMWD (GeneID 1762),0.89
DMWD (GeneID 1762),1.35
DMWD (GeneID 1762),1.92
DMWD (GeneID 1762),1.71
